From ChEMBL document CHEMBL5120742, “Multi-target weapons: diaryl-pyrazoline thiazolidinediones simultaneously targeting VEGFR-2 and HDAC cancer hallmarks” (RSC Med Chem, 2021) come the findings set out here.

In one assay the test system is A549. Put plainly: Antiproliferative activity against human A549 cells assessed as reduction in cell viability after 48 hrs by MTT assay. The class given is functional, cell-based. The settings on record: A549, 48 h. The method in brief: (§1)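 MCF-7, K562, A549 and HT-29 lines were seeded in 96-well plates and kept overnight at 37 °C, 5% CO2, 95% humidity. They were then exposed to six concentrations (100 to 2.5) for 48 h. After PBS washes, MTT was added for 4 h at 37 °C and formazan was dissolved in DMSO. Absorbance was read at 570 nm. Survival is mean OD of treated wells over the negative control, and IC50 was derived from that.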
For orientation: Tetrazolium assays rely on reduction of a dye to a coloured formazan, in cell work by metabolically active cells.

The test system of another assay is MCF7. Briefly: Antiproliferative activity against human MCF7 cells assessed as reduction in cell viability after 48 hrs by MTT assay. The class given is functional, cell-based. The settings on record: MCF7, 48 h. Summed up: as §1

With `CC(=O)O[C@H]1C(=O)[C@@]2(C)[C@H]([C@H](OC(=O)c3ccccc3)[C@]3(O)C[C@H](OC(=O)[C@H](O)[C@@H](NC(=O)c4ccccc4)c4ccccc4)C(C)=C1C3(C)C)[C@]1(OC(C)=O)CO[C@@H]1C[C@@H]2O` [PACLITAXEL], the results for the IC50 with A549 and in the assay with MCF7 were 290 nM and 350 nM, respectively.
